Laboratory results as given in patent publication US20160009800A1.
No constants are given. Whether binding was seen depends on the method and setting. Some binding calls cover weakened binding; strength is not graded here. Blank lines part the entries; values can stand above or below the binder they belong to.

By UniProt entry, the sequences of proteins in these tests, tags left out. Residues count along the entry.
UniProt P15208, residues 28-1372: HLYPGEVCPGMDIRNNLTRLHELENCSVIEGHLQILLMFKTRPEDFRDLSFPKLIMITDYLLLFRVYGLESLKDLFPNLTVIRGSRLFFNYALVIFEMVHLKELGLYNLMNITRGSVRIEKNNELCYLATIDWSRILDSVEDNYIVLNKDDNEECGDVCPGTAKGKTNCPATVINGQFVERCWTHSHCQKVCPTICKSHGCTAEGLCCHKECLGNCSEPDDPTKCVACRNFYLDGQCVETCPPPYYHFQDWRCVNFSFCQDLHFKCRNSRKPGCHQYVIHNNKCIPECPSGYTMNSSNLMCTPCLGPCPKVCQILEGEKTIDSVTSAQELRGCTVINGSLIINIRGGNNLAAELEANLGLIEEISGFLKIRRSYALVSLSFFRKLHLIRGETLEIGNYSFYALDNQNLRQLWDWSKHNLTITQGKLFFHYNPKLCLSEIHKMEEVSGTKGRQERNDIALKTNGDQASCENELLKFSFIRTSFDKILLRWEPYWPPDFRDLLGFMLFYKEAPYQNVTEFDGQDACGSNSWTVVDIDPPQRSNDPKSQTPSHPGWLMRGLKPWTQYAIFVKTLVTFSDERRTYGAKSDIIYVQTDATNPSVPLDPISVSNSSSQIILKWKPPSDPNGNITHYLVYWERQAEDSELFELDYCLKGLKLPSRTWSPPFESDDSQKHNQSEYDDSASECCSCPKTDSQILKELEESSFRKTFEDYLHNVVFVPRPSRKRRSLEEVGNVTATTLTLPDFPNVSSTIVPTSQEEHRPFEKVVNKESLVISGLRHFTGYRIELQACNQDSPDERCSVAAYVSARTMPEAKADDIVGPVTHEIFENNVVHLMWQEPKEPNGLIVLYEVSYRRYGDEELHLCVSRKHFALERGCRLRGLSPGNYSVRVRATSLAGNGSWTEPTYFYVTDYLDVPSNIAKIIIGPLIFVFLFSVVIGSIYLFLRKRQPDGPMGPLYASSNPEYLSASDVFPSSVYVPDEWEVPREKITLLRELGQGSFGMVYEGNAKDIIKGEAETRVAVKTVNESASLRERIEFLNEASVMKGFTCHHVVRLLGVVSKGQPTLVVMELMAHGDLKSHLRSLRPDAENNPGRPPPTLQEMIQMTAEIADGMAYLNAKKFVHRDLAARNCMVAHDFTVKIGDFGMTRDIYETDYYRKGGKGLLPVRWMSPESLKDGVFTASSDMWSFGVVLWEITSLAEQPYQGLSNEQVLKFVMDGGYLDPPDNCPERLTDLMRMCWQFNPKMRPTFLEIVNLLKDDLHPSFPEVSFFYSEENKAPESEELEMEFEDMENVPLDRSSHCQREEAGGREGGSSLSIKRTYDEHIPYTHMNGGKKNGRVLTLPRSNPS

Legend:
[1] = target: mouse insulin receptor (mouse) (UniProt P15208); test: FACS on mouse INSR; conditions not given on the sheet
[2] = target: mouse insulin receptor (mouse) (UniProt P15208); test: flow cytometry, biotinylated IgG on mINSR-CHOK1 cells
[3] = target: rabbit insulin receptor (rabbit); test: FACS on monocytes of rabbit PBMC and on CHO cells expressing rabbit insulin receptor, without insulin
[4] = target: rabbit insulin receptor (rabbit); test: FACS on CHO cells expressing rabbit insulin receptor, without insulin
[5] = target: rabbit insulin receptor (rabbit); test: FACS on monocytes of rabbit PBMC, without insulin
[6] = target: mouse insulin receptor (mouse) (UniProt P15208); test: FACS on mouse INSR; conditions not given on the sheet [cont'd]

binding [1]: binds
B1: Ab033 (antibody, V domains shown)
VH: EVQLLESGGGLVQPGGSLRLSCAASGFTFTNYNMIWVRQAPGKGLEWVSGVSWNGSRTHYADSVKGRFTISRDNSKNTLYLQMNSLRAEDTAVYYCARERGSWDTTGYYNYYYYGMDVWGQGTLVTVSS
VL: QSVLTQPPSASGTPGQRVTISCTGSSSNIGAGYDVHWYQQLPGTAPKPLIYGNSNRPSGVPDRFSGSKSGTSASLAISGLRSEDEADYYCTSYTGNNQFVIFGGGTKLTVLG

binding [2]: binds
B2: Ab077 (antibody, IgG2, V domains shown)
VH: EVQLVESGGGVVQPGGSLRLSCAASGFTFSSYWMTWVRQAPGKGLEWVANINQDGSEKHYVDSVKGRFTISRDNAKNSLYLQMNSLRGEDTAVYYCARGRGAWAFDYWGQGTLVTVSS
VL: DIQMTQSPSSLSASVGDRVTITCRASQGISSWLAWYQQKPGKAPKLLIYAASSLQSGVPSRFSGSGSGTDFTLTISSLQPEDFATYYCQQANSFPITFGQGTRLEIK

binding [3]: binds
B3: Ab080 (antibody, IgG2, V domains shown)
VH: EVQLVESGGGVVQPGGSLRLSCAASGFTFDDYAMHWVRQAPGKGLEWVSLISWDGGSTYYADSVKGRFTISRDNSKNSLYLQMNSLRAEDTALYYCAKARGVVIIDYWGQGTLVTVSS
VL: EIVLTQSPGTLSLSPGERATLSCRASQSLSSSFLAWYQQKPGQAPRLLIYGAGSRATGVPDRFSGSGYGTDFSLTISRLELEDFAVYYCQQYDRSQITFGQGTRLEIK

binding [3]: binds
B4: Ab037 (antibody, V domains shown)
VH: EVQLLESGGGLVQPGGSLRLSCAASGFTFSSYEMNWVRQAPGKGLEWVSSISSSSRYADVANSVVGRFTISRDNSKNTLYLQMNSLRAEDTAVYYCARGEWLDHFDYWGQGTLVTVSS
VL: QSVLTQPPSASGTPGQRVTISCSGSSSNIGNSAVNWYQQLPGTAPKLLIYDNNKRPSGVPDRFSGSKSGTSASLAISGLRSEDEADYYCQVWDSGTAVFGGGTKLTVLG

binding [4]: binds
B5: Ab058 (antibody, V domains shown)
VH: QLQLQQWGAGLLKPSETLSLTCAVYSGSFSGYYYSWIRQSPGRGLEWIGDISHTGSTDYNPSLKTRVTISVDTSKNQFSLNLNSVTAADTAVYYCARDAPKGGSGLYLFDYWGQGTLVTVSS
VL: QSVLTQPPSVSGAPGQRVTISCTGSRSNIGADHDVHWYQQIPGRAPKLLIYGNSNRPSGVPDRFSGSRSGTSASLAITGLQAEDEADYYCQSYDNSLSGSVFGGGTKLTVL

binding [4]: binds
B6: Ab050 (antibody, IgG2, V domains shown)
VH: QVQLVQSGAELKKPGATVKISCKVSGYTFGDYHMHWVKQAPGKGLEWMGLVDPENGETEYGEKFQDRITMAADTSTDTAYMELSSLRSEDTAVYYCARSPSSSGYFRVDGFDIWGQGTMVTVSS
VL: NFMLTQPHSVSESPGKTVSISCTGSSGSIGSNYVQWYQQRPGSAPTTVIYEDNQRPSGVPDRFSGSIDSSSNSASLTISGLKTEDEADYYCQSYYNSNVVFGGGTKLTVL

binding [2]: binds
B7: Ab064 (antibody, IgG2, V domains shown)
VH: QVQLVQSGAEVKKPGESLKISCKGSGFSFPSYWIGWVRQMPGKGLELVGIIYPGDSDIRYSPSFQGQVTISADTSISTVYLQWSSLQTTDTATYYCARGGFNWFDPWGQGTLVTVSS
VL: QAVVTQEPSLTVSPGGTVTLTCASSTGAVTSGYYPNWFQQKPGQAPRALIYSTSNKHSWTPARFSGSLLGGKAALTLSGVQPEDEAEYYCLLYYGGAQPWVFGGGTQLTVL

binding [4]: binds
B8: Ab052 (antibody, IgG2, V domains shown)
VH: EVQLVQSGAEVKKPGESLKISCKGSGYRFTSYWIGWVRQMPGRGLEWMGIIYPGDSDTRYSPSFQGQVTISVDKSISTAYLQWSSLKASDTAMYYCATHHASGRGLDPWGQGTLVTVSS
VL: QAMLTQPASLSASPGASASLTCTLRSGINVVAYNIYWYRQKSGSPPQSVLRYKSDSDSERDSGVPSRFSGSKDVSANAGILLISGLQSEDEADYYCLIWHNSAWVFGGGTQLTVL

binding [3]: binds
B9: Ab062 (antibody, IgG2, V domains shown)
VH: QVQLQQWGAGLLKPSETLSLTCAVYGGSFSGYYWSWIRQPPGKGLEWIGEINHSGSTNYNPSLKSRVTISVDTSKNQFSLKLSSVTAADTAVYYCARGPSGWYIREFDYWGQGTLVTVSS
VL: QSVLTQPPSVSGAPGQRVTISCTGSSSNIGAGYDVHWYQQLPGTAPKLLIYGNSNRPSGVPDRFSGSKSGTSASLAITGLQAEDEADYYCQSYDSSLSGSGVFGGGTKVTVL

binding [5]: binds
B10: Ab079 (antibody, IgG2, V domains shown)
VH: QMQLVQSGAEMKKPGASVKVSCKASGYSFSDYGITWVRQAPGQGPEWMGWISGYNGNTNYAQKFQDRVTMTTDTSTSTAYMELRSLKSDDTAVYFCARARGVWMFDNWGQGTLVTVSS
VL: AIRMTQSPSTLSASVGDRVTITCRASQSISTWLAWYQQKPGKAPKLLIYTTSTLESGVPSRFSGSRSGTEFTLTISSLQPDDFATYYCQQYNSYPLTFGGGTKVEIK

binding [6]: binds
B11: Ab048 (antibody, V domains shown)
VH: EVQLLESGGGLVQPGGSLRLSCAASGFTFSSNYMSWVRQAPGKGLEWVSAISGSGGSTYYADSVKGRFTISRDNSKNTLYLQMNSLRAEDTAVYYCARVGSSGWYYFDYWGQGTLVTVSS
VL: QSVLTQPPSASGTPGQRVTISCSGISSNIGNNFVSWYQQLPGTAPKLLIYGNSNRPSGVPDRFSGSKSGTSASLAISGLRSEDEADYYCAAWDDSPRGPVFGGGTKLTVLG
